Assay results: publication doi:10.1101/2022.08.24.505076
Results are given in words; binding and its absence hold for the method and conditions named. In cells and extracts the contact can be indirect. Some binding calls cover weakened binding; strength is not graded here. Sequences can lack the tags named with a protein.

Target: T1, GFP-MND1 (UniProt Q9BWT6)
T1 sequence: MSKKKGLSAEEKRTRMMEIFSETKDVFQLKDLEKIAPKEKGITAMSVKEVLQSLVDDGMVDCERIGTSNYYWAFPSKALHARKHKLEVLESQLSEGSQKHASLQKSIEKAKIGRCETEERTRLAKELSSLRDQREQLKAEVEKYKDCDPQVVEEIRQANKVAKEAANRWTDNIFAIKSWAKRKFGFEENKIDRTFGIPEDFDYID
Assay: co-IP

binding: binds
B1: HOP2 (protein, UniProt Q9P2W1 1-217)
chain: MSKGRAEAAAGAAGILLRYLQEQNRPYSSQDVFGNLQREHGLGKAVVVKTLEQLAQQGKIKEKMYGKQKIYFADQDQFDMVSDADLQVLDGKIVALTAKVQSLQQSCRYMEAELKELSSALTTPEMQKEIQELKKECAGYRERLKNIKAATNHVTPEEKEQVYRERQKYCKEWRKRKRMATELSDAILEGYPKSKKQFFEEVGIETDEDYNVTLPDP
